The text below walks through data of publication PMC6376957.

Sequences of proteins named here, by UniProt entry; tags and fusion partners are left off.
UniProt P05804: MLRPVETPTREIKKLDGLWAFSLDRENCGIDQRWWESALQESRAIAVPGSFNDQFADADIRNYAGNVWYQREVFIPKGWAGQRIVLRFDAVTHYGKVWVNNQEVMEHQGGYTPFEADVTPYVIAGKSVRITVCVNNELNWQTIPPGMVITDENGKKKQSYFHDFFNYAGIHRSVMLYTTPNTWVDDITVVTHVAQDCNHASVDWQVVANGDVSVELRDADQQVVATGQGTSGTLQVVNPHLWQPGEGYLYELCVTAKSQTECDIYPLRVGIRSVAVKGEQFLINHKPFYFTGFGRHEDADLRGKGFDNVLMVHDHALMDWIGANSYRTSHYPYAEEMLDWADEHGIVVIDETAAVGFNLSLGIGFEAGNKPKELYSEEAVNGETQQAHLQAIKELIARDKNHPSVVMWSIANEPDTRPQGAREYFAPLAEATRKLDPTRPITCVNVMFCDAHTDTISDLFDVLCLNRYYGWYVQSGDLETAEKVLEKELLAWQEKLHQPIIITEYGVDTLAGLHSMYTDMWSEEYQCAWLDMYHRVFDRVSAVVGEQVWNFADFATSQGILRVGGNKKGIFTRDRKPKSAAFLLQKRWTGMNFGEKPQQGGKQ

For the experiment, the target named is GUS fused to nYFP (BiFC negative control, in place of OsFTL10) (UniProt P05804). Briefly: split reporter; BiFC in rice protoplasts: GF14c in p35S::cYFP, OsFTL10 in p35S::nYFP; live cell imaging by confocal microscope; GUS in place of either partner as negative control.

These are yes or no findings as the source states them, for the method shown. Binding seen in cells or lysates may run through a third protein. Tags and fused reporters may be left off the sequences shown.

B1: GF14c fused to cYFP (BiFC) (protein, UniProt Q6ZKC0 1-256)
chain: MSREENVYMAKLAEQAERYEEMVEYMEKVAKTVDVEELTVEERNLLSVAYKNVIGARRASWRIVSSIEQKEEGRGNEEHVTLIKEYRGKIEAELSKICDGILKLLDSHLVPSSTAAESKVFYLKMKGDYHRYLAEFKTGAERKEAAESTMVAYKAAQDIALADLAPTHPIRLGLALNFSVFYYEILNSPDKACNLAKQAFDEAISELDTLGEESYKDSTLIMQLLRDNLTLWTSDLTEDGGDEVKEASKGDACEGQ
Take B1: the binding result was “no binding”.
